Assay results reported in article PMC8924001.
For at least one entry, the source does not settle the construct or the ends of the probe. At least one verdict was read from the data and is not stated in words by the source.

The chains behind the UniProt entries cited, without tags or fusion partners.
UniProt P11940, whole entry: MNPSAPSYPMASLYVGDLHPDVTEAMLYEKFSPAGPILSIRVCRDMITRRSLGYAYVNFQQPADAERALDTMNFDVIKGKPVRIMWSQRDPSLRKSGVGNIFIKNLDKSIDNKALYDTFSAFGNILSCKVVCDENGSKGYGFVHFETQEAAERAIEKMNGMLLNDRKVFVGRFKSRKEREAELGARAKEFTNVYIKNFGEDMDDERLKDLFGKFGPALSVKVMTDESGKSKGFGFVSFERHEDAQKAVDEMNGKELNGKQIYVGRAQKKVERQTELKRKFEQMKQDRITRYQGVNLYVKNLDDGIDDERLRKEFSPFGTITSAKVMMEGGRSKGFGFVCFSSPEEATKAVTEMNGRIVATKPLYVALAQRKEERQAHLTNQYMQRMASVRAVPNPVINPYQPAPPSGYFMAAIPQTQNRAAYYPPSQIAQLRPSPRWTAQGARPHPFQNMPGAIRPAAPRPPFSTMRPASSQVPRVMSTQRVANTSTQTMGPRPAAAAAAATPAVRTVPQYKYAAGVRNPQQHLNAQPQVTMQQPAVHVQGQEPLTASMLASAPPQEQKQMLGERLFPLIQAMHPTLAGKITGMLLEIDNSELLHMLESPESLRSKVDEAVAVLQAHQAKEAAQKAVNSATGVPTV

Molecular target: PABPC1 full-length (human) (UniProt P11940)
Test: EMSA
Details: 15 nM RNA, 0.5 uM PABPC1, binding not altered by 1 uM cold mTOG-Psi; EMSA: 20 mM Tris pH 7.5, 2 mM MgCl2, 0.1% BSA, 3% Ficoll 400, 0.01% NP-40, room temperature, 30 min; ~250 nM RNA; 8% TBE gel; recombinant protein; residues 1-636; protein details: N-terminal 6xHis-TEV (cleaved during purification); label: radiolabel

**Q.** Does AAAAAAAAAAAAAAAAAA [poly(A) 18 nt] bind?
**A.** Result: binds
